PubChem BioAssay AID504786 | Drosophila RNAi Screening Center | 2011
Test: 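Fly genes required for HIF-dependent transcription when hypoxia is mimicked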 (primary screen). Cell system: Drosophila S2 cells with a stable HIF luciferase reporter. Reagent: long dsRNA against Drosophila genes, about 0.2 µg dsRNA per well of a 384-well plate. Timing: three days of knock-down, then 20 h of DFO before reading. Treatment: desferrioxamine (DFO) at 100 µM, an iron chelator that mimics hypoxia, for 20 h. Detection: 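Firefly luciferase driven by the mouse ldh-a hypoxia-response element, measured after 20 h of 100 µM DFO; z-scores per plate, higher means more signal lost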. Direction: z-score: higher = stronger loss of HIF reporter signal.
The deposit covers about 21,000 reagents; this is a random part of those that have a named target and a result. 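Primary screen; positive scores mean lost reporter signal, so the sign may be inverted from the usual convention.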 Reagents against one gene are numbered here.

no.	gene knocked down	dsRNA no.	z-score, replicate 1	z-score, replicate 2
1	GstE11 (GeneID 37128)	1	-0.3	-0.3
2	CtsK1 (GeneID 39547)	1	0.1	0
3	PolG1 (GeneID 34792)	1	-0.1	-0.3
4	BOD1 (GeneID 43352)	1	-0.3	-0.4
5	Adar (GeneID 31130)	1	-0.1	-0.8
6	RhoGAP15B (GeneID 32686)	1	-0.2	-0.3
7	RhoGAP15B (GeneID 32686)	2	-0.2	-0.2
8	beat-IIa (GeneID 42086)	1	-0.3	-0.7
9	beat-IIa (GeneID 42086)	2	0	0.1
10	Agpat3 (GeneID 39820)	1	-0.3	-0.2
11	Ssl2 (GeneID 43424)	1	-0.4	-0.1
12	CG3107 (GeneID 35475)	1	-0.3	-0.5
13	CG33278 (GeneID 2768946)	1	-0.1	0
14	MED24 (GeneID 38914)	1	1.2	0.9
15	Mad (GeneID 33529)	1	-0.3	-0.2
16	Nsun2 (GeneID 45064)	1	-0.1	0.4
17	CG6026 (GeneID 42287)	1	1.2	0
18	fzy (GeneID 34968)	1	-0.2	2.7
19	CheB98a (GeneID 50092)	1	-0.5	-0.4
20	Tapdelta (GeneID 45680)	1	-0.2	-0.5
21	B52 (GeneID 41670)	1	-0.3	-0.2
22	Taf3 (GeneID 43793)	1	0	-0.4
23	Tti1 (GeneID 41189)	1	0	0.4
24	Mcm5 (GeneID 41296)	1	-0.1	0
25	CG33784 (GeneID 3772181)	1	-0.4	0.2
26	Pgam5-2 (GeneID 37899)	1	-0.2	-0.1
27	eRF3 (GeneID 34658)	1	-0.3	0.3
28	Ski6 (GeneID 34721)	1	-0.3	1.7
29	eIF6 (GeneID 37776)	1	-0.2	0.2
30	CG1631 (GeneID 33029)	1	-0.1	-0.3
31	snz (GeneID 31704)	1	-0.3	-0.5
32	CG3589 (GeneID 37966)	1	-0.2	-0.4
33	ppk19 (GeneID 43489)	1	-0.5	0.1
34	CG2852 (GeneID 37591)	1	-0.3	-0.5
